Assay results: the supplement of paper PMC6411743
± gives the standard deviation of the averaged measurements. The list shows a part of the results.

Chains of the proteins cited; added tags and fusions are not shown. Lines headed by an entry give the natural chain unless they say otherwise; changes in a name come on top.
UniProt Q5JS54: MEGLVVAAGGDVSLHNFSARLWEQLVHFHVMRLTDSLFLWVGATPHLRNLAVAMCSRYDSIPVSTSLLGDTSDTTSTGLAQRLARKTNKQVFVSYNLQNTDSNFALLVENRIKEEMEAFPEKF
UniProt Q4G0N4: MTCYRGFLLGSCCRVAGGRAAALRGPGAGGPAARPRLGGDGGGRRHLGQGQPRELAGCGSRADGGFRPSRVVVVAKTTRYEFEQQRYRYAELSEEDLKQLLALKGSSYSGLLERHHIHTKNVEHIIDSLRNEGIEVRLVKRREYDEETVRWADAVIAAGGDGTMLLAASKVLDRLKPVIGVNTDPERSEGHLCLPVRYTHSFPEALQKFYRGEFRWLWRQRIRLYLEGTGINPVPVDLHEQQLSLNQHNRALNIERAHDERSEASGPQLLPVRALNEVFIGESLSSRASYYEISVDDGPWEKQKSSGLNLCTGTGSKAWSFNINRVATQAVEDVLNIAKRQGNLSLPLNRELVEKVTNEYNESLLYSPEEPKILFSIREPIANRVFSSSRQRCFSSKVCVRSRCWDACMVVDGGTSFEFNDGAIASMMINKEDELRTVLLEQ
UniProt Q4KMP7: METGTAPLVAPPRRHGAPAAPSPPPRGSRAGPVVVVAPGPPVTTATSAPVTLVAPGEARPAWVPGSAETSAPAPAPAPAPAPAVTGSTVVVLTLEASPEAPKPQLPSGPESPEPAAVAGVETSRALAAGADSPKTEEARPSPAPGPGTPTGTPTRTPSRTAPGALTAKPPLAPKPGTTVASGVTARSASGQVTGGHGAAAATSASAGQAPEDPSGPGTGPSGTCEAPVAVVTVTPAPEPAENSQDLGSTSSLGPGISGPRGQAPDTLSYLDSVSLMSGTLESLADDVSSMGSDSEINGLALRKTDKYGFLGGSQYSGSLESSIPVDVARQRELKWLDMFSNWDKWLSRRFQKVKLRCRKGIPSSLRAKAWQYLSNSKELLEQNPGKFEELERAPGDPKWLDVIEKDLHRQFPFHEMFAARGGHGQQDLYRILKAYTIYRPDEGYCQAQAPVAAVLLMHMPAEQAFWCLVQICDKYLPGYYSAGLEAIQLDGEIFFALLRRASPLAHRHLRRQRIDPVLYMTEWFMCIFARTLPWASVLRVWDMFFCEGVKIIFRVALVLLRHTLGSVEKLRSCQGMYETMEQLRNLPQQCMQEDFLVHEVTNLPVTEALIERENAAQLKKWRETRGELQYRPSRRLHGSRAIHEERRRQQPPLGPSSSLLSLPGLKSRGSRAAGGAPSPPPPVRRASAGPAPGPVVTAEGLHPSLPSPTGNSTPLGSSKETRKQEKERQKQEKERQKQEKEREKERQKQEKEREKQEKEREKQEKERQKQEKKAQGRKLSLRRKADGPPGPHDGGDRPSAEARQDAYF
UniProt Q3KQU3: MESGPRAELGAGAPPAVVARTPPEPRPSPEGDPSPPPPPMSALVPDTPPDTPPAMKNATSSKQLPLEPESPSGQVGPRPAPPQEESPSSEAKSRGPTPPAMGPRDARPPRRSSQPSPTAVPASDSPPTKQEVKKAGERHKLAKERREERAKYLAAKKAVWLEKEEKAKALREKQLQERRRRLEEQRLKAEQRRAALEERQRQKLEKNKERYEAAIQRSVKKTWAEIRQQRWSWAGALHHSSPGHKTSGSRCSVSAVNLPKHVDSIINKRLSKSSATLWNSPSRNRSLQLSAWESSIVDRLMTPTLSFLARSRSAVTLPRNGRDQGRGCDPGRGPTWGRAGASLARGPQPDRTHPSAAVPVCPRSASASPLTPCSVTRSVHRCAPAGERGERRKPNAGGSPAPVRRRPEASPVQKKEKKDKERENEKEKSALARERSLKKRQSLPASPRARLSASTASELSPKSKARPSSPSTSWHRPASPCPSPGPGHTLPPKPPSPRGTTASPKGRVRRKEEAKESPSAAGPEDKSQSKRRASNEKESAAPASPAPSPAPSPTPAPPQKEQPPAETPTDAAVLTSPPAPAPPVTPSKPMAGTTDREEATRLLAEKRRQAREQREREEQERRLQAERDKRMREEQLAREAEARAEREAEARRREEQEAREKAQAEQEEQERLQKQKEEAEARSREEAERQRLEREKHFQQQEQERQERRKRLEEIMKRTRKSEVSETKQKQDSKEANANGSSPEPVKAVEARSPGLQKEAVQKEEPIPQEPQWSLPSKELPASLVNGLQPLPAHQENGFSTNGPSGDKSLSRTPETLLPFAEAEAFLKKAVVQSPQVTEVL
UniProt Q15833: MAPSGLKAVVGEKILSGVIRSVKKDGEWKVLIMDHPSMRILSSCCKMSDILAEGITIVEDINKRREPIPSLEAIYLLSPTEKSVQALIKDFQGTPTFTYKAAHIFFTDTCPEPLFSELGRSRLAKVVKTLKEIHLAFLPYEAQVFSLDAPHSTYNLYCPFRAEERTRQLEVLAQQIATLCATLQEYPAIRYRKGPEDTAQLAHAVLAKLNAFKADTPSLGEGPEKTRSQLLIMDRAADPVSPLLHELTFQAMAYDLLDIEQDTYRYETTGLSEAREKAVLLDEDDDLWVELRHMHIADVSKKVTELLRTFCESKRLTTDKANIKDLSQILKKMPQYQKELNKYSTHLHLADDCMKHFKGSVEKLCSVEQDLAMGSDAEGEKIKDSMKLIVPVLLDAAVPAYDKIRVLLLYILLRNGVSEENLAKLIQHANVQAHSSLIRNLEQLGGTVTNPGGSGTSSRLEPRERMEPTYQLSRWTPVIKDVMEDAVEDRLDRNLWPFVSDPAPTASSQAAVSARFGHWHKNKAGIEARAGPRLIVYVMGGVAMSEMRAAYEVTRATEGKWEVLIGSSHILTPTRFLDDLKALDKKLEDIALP
UniProt Q32P51: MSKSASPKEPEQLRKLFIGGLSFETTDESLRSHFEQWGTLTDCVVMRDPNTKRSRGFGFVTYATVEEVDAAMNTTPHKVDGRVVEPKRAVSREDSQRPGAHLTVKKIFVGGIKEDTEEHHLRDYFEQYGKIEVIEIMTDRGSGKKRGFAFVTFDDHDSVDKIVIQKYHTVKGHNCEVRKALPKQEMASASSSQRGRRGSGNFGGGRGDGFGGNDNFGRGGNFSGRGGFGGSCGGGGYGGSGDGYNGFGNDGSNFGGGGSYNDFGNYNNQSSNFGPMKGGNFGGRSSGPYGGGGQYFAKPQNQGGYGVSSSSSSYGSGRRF
UniProt Q15223: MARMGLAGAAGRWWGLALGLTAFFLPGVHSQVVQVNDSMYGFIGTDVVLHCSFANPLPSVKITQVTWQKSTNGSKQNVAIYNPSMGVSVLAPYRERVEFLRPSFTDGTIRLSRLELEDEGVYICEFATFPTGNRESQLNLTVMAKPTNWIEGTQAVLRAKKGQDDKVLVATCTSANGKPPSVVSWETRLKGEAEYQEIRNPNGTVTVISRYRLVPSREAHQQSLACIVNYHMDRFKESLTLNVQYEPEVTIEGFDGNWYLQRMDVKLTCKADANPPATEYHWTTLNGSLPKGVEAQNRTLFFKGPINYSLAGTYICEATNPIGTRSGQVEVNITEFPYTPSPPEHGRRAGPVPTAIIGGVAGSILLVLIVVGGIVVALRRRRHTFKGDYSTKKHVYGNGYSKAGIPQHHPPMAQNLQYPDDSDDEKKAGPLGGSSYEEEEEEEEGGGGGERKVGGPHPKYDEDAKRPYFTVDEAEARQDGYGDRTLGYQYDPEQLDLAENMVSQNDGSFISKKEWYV
UniProt Q53FA7: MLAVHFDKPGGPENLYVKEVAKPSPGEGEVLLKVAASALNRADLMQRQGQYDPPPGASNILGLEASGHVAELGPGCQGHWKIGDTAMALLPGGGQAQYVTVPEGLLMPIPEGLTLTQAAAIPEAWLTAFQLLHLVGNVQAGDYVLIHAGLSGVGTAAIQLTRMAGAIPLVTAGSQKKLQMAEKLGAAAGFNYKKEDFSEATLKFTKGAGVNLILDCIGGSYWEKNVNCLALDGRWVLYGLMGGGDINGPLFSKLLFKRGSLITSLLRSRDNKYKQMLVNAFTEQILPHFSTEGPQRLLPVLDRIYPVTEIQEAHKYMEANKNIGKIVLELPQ
UniProt Q15003, whole entry: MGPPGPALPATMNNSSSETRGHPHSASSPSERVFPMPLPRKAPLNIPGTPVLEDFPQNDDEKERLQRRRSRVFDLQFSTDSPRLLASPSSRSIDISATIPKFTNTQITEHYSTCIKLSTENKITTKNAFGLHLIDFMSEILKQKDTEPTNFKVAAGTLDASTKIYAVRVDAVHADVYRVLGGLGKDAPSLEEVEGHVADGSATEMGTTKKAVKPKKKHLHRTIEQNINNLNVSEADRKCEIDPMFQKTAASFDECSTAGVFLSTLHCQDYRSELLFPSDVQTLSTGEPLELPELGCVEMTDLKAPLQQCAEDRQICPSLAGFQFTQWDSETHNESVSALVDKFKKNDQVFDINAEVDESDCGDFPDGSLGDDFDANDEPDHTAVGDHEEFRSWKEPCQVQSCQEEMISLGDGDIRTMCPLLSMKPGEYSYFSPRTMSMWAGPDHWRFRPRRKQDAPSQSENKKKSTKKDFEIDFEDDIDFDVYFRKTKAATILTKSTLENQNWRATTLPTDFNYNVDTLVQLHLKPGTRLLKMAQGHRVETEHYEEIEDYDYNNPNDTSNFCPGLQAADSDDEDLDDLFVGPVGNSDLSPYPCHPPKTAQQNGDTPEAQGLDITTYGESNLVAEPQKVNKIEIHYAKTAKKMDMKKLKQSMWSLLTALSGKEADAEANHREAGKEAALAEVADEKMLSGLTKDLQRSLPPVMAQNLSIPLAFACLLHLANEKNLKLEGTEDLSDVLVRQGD
UniProt Q14694, whole entry: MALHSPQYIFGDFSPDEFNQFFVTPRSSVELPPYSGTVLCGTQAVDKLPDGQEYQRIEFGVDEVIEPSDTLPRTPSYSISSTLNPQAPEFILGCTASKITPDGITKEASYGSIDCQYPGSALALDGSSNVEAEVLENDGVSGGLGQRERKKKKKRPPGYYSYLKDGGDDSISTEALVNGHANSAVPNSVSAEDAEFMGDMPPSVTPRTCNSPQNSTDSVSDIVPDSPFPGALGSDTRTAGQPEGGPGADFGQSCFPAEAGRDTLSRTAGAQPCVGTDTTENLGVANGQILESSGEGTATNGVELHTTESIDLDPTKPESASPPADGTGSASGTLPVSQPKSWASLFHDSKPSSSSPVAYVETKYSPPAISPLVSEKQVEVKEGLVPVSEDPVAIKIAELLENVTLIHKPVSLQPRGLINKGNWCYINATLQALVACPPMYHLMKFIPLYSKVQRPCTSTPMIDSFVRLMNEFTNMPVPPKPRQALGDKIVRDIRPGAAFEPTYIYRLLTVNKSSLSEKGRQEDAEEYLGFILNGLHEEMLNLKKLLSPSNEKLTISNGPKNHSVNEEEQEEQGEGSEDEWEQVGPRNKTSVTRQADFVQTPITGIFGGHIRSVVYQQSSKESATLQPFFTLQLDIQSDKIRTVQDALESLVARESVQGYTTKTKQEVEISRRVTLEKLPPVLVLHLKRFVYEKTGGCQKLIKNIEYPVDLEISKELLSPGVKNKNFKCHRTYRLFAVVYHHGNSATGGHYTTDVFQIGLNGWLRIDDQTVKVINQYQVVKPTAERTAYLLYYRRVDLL
UniProt Q4V328: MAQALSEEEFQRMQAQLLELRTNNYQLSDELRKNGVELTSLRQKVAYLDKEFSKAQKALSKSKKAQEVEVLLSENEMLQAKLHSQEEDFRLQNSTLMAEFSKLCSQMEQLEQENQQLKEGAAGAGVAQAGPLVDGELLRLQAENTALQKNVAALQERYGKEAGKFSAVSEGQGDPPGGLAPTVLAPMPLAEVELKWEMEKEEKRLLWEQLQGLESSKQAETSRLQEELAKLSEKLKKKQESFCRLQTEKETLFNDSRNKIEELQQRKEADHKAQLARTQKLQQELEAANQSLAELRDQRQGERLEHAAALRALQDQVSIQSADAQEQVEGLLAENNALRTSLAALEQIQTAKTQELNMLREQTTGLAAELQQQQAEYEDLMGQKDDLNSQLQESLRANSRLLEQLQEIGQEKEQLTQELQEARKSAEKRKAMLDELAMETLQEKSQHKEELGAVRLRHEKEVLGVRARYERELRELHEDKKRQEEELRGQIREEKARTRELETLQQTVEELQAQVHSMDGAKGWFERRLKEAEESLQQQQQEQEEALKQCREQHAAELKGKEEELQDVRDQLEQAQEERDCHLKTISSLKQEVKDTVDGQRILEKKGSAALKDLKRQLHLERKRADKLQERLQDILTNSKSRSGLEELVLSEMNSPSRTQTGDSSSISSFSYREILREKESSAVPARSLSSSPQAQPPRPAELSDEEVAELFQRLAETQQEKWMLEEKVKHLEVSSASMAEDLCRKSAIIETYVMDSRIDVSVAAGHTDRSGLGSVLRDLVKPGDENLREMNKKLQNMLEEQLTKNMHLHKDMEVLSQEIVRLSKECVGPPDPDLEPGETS
UniProt Q4VC05, whole entry: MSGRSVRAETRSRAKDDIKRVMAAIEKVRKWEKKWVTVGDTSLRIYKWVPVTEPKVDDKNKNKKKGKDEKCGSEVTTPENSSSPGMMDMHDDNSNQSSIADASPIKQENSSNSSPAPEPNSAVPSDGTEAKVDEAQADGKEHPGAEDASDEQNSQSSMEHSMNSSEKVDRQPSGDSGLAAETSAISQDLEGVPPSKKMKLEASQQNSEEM

Compound: Nc1nc2c(ncn2[C@@H]2O[C@H](COP(=O)(O)OP(=O)(O)OP(=O)(O)O)[C@@H](O)[C@H]2O)c(=O)[nH]1 [guanosine triphosphate]
Test: NP40-soluble protein abundance relative to vehicle (solubility fold change) (ratio); higher = more soluble protein in presence of GTP
Summary of the method: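 Jurkat crude lysate (Dounce-homogenised) was treated with eight concentrations from 0.1 to 10 mM for 10 min at room temperature, then 3 min at 37 °C. It was solubilised with 0.8% NP40 and benzonase (60 min, 4 °C) and ultracentrifuged, and the supernatant was TMT-labelled for LC-MS/MS. Intensities were vsn-normalised, and the value is the fold change against the NP40-processed vehicle per replicate, from three independent experiments.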

Target	NP40-soluble protein abundance (concentration: 0.1mM)	NP40-soluble protein abundance (concentration: 0.5mM)	NP40-soluble protein abundance (concentration: 1mM)	NP40-soluble protein abundance (concentration: 2mM)	NP40-soluble protein abundance (concentration: 4mM)	NP40-soluble protein abundance (concentration: 6mM)	NP40-soluble protein abundance (concentration: 8mM)	NP40-soluble protein abundance (concentration: 10mM)
UniProt Q5JS54 and related entries	0.88 ± 0.017	0.869 ± 0.039	0.944 ± 0.032	0.934 ± 0.022	0.911 ± 0.033	0.9391 ± 0.0056	0.865 ± 0.041	0.894 ± 0.041
UniProt Q16656 and related entries	0.955 ± 0.046	0.929 ± 0.049	0.926 ± 0.061	0.95 ± 0.11	0.916 ± 0.066	0.946 ± 0.11	0.932 ± 0.07	0.955 ± 0.092
Q5STZ8 and related entries (UniProt Q8NE71)	1.03 ± 0.023	1.02 ± 0.019	0.96 ± 0.053	0.987 ± 0.043	0.993 ± 0.06	0.997 ± 0.046	0.994 ± 0.066	0.984 ± 0.092
UniProt Q4G0N4	1.09 ± 0.085	1.08 ± 0.056	1 ± 0.079	0.996 ± 0.049	1.01 ± 0.096	0.962 ± 0.056	0.995 ± 0.038	0.94 ± 0.13
UniProt Q16576 and related entries	0.908 ± 0.072	0.972 ± 0.11	0.91 ± 0.066	0.927 ± 0.098	0.901 ± 0.1	0.891 ± 0.078	0.918 ± 0.11	0.952 ± 0.099
UniProt Q15438 and related entries	1.03 ± 0.066	1.02 ± 0.047	0.973 ± 0.073	0.975 ± 0.035	0.972 ± 0.053	0.969 ± 0.039	0.946 ± 0.073	0.924 ± 0.092
ARHGAP15 (UniProt Q53QZ3)	1 ± 0.052	1.01 ± 0.079	0.97 ± 0.037	0.964 ± 0.029	0.983 ± 0.018	0.955 ± 0.034	0.956 ± 0.062	0.952 ± 0.027
TBC1D10B (UniProt Q4KMP7)	1.01 ± 0.031	1.05 ± 0.05	1.01 ± 0.054	1.04 ± 0.034	1 ± 0.0097	1.01 ± 0.06	1.01 ± 0.053	1.05 ± 0.035
CD226 (UniProt Q15762)	1.06 ± 0.19	0.985 ± 0.18	1 ± 0.19	0.946 ± 0.17	0.989 ± 0.17	0.959 ± 0.19	0.876 ± 0.15	1.01 ± 0.17
UniProt Q3KQU3 and related entries	1.12 ± 0.049	1.08 ± 0.048	1.24 ± 0.098	1.3 ± 0.054	1.35 ± 0.17	1.34 ± 0.14	1.43 ± 0.23	1.46 ± 0.25
UniProt Q15046	1.02 ± 0.054	1.11 ± 0.11	1.07 ± 0.14	1.15 ± 0.19	1.16 ± 0.2	1.2 ± 0.24	1.17 ± 0.21	1.11 ± 0.22
UniProt Q15526 and related entries	1.17 ± 0.11	1.1 ± 0.093	0.971 ± 0.038	1.01 ± 0.039	1 ± 0.027	0.972 ± 0.049	0.934 ± 0.11	0.963 ± 0.018
UniProt Q4G148 and related entries	1.03 ± 0.021	1.01 ± 0.027	1.03 ± 0.046	1.02 ± 0.039	1.07 ± 0.062	0.994 ± 0.045	0.986 ± 0.12	1.04 ± 0.12
CMPK2 (UniProt Q5EBM0)	1.02 ± 0.043	0.991 ± 0.031	0.972 ± 0.066	0.949 ± 0.034	0.94 ± 0.058	0.93 ± 0.079	0.917 ± 0.049	0.886 ± 0.081
MLF2 (UniProt Q15773)	1.03 ± 0.023	0.953 ± 0.067	0.93 ± 0.012	0.921 ± 0.076	0.9106 ± 0.0037	0.917 ± 0.059	0.852 ± 0.012	0.828 ± 0.029
CRTC2 (UniProt Q53ET0)	1.06 ± 0.14	1.04 ± 0.15	1.11 ± 0.08	1.103 ± 0.0038	1.03 ± 0.098	1.02 ± 0.12	1.12 ± 0.097	1.15 ± 0.24
UniProt Q15833 and related entries	1 ± 0.034	0.988 ± 0.0093	0.943 ± 0.032	0.948 ± 0.044	0.923 ± 0.059	0.924 ± 0.06	0.906 ± 0.038	0.914 ± 0.061
UniProt Q15006	0.987 ± 0.011	0.957 ± 0.023	0.928 ± 0.033	0.943 ± 0.03	0.91 ± 0.03	0.914 ± 0.032	0.887 ± 0.018	0.9 ± 0.032
Q5T063 and related entries (UniProt Q9NZJ6)	0.965 ± 0.042	0.992 ± 0.088	0.945 ± 0.049	0.946 ± 0.071	0.915 ± 0.1	0.897 ± 0.066	0.917 ± 0.013	0.889 ± 0.037
FSCN1 (UniProt Q16658)	1.11 ± 0.052	1.06 ± 0.017	1.07 ± 0.11	1.05 ± 0.024	1.05 ± 0.06	1.02 ± 0.052	1.03 ± 0.053	0.986 ± 0.037
HNRNPA1L2 (UniProt Q32P51)	1.34 ± 0.52	1.32 ± 0.58	1.8 ± 0.79	1.49 ± 0.44	1.47 ± 0.51	1.67 ± 0.65	1.92 ± 0.8	1.58 ± 0.35
UniProt Q5M775 and related entries	0.963 ± 0.045	1.03 ± 0.13	0.926 ± 0.11	0.905 ± 0.08	0.965 ± 0.073	1.04 ± 0.021	1.08 ± 0.086	1.06 ± 0.054
UniProt Q15223	1.14 ± 0.15	1.02 ± 0.13	1.02 ± 0.13	1.08 ± 0.13	1.04 ± 0.15	0.959 ± 0.13	1.06 ± 0.12	0.979 ± 0.18
TP53I3 (UniProt Q53FA7)	0.948 ± 0.083	0.946 ± 0.1	0.954 ± 0.086	0.926 ± 0.11	0.946 ± 0.077	0.91 ± 0.11	0.94 ± 0.089	0.947 ± 0.077
NCAPH (UniProt Q15003)	0.967 ± 0.021	1.02 ± 0.028	0.991 ± 0.015	1.01 ± 0.037	0.983 ± 0.041	1.02 ± 0.052	1.01 ± 0.084	1.01 ± 0.069
UniProt Q14694 and related entries	1.01 ± 0.061	1.04 ± 0.025	1.04 ± 0.07	1.07 ± 0.06	1.17 ± 0.061	1.24 ± 0.035	1.28 ± 0.076	1.32 ± 0.078
HECTD3 (UniProt Q5T447)	1.05 ± 0.12	1.14 ± 0.082	1.01 ± 0.099	1.08 ± 0.17	1.14 ± 0.19	1.2 ± 0.22	1.27 ± 0.27	1.29 ± 0.33
UniProt Q4V328 and related entries	0.957 ± 0.046	0.926 ± 0.084	0.975 ± 0.092	0.93 ± 0.12	0.923 ± 0.097	0.909 ± 0.12	0.925 ± 0.072	0.936 ± 0.076
TOMM34 (UniProt Q15785)	0.945 ± 0.08	0.889 ± 0.075	0.971 ± 0.12	0.944 ± 0.13	0.903 ± 0.11	0.921 ± 0.1	0.919 ± 0.1	0.938 ± 0.1
UniProt Q4VC05 and related entries	1.03 ± 0.12	1.29 ± 0.32	1.37 ± 0.13	1.38 ± 0.18	1.29 ± 0.22	1.4 ± 0.033	1.44 ± 0.058	1.61 ± 0.44

2 records picked at random from those above, as already listed:
Target	NP40-soluble protein abundance (concentration: 0.1mM)	NP40-soluble protein abundance (concentration: 0.5mM)	NP40-soluble protein abundance (concentration: 1mM)	NP40-soluble protein abundance (concentration: 2mM)	NP40-soluble protein abundance (concentration: 4mM)	NP40-soluble protein abundance (concentration: 6mM)	NP40-soluble protein abundance (concentration: 8mM)	NP40-soluble protein abundance (concentration: 10mM)
UniProt Q4G0N4	1.09 ± 0.085	1.08 ± 0.056	1 ± 0.079	0.996 ± 0.049	1.01 ± 0.096	0.962 ± 0.056	0.995 ± 0.038	0.94 ± 0.13
UniProt Q14694 and related entries	1.01 ± 0.061	1.04 ± 0.025	1.04 ± 0.07	1.07 ± 0.06	1.17 ± 0.061	1.24 ± 0.035	1.28 ± 0.076	1.32 ± 0.078
